This test concerns the target T1, endogenous RAD54 of HeLa cells (human (endogenous in HeLa)) (UniProt Q92698).
T1 sequence: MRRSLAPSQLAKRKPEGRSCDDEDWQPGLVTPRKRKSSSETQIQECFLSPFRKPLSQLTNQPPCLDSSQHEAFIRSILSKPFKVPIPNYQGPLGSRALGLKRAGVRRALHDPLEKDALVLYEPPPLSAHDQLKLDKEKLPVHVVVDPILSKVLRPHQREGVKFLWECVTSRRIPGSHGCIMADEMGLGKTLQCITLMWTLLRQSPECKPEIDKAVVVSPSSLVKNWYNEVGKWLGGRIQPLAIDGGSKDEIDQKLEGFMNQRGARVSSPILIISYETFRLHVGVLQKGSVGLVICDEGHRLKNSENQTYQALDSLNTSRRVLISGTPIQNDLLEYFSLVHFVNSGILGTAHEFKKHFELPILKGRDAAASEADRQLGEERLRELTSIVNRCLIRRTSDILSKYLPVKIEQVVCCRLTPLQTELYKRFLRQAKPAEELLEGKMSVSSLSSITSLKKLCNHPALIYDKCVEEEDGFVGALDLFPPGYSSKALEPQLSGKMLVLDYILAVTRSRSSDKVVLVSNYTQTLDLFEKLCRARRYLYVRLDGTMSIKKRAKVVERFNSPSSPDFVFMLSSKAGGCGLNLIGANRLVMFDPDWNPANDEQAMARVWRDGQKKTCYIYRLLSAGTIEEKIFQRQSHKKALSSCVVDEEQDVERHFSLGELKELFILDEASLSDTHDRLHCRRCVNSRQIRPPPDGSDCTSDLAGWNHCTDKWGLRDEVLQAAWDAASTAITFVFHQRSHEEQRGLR
Nature of the test: co-IP; RAD54 antibody (sc-166730) or mouse IgG isotype on Protein A/G agarose; HeLa lysates in RIPA buffer, 1 mg total protein, overnight at 4°C; cells unirradiated or treated with IR and recovered 0.5-12 h.

By UniProt entry, the sequences of proteins in these tests, tags left out.
UniProt Q9UKI8: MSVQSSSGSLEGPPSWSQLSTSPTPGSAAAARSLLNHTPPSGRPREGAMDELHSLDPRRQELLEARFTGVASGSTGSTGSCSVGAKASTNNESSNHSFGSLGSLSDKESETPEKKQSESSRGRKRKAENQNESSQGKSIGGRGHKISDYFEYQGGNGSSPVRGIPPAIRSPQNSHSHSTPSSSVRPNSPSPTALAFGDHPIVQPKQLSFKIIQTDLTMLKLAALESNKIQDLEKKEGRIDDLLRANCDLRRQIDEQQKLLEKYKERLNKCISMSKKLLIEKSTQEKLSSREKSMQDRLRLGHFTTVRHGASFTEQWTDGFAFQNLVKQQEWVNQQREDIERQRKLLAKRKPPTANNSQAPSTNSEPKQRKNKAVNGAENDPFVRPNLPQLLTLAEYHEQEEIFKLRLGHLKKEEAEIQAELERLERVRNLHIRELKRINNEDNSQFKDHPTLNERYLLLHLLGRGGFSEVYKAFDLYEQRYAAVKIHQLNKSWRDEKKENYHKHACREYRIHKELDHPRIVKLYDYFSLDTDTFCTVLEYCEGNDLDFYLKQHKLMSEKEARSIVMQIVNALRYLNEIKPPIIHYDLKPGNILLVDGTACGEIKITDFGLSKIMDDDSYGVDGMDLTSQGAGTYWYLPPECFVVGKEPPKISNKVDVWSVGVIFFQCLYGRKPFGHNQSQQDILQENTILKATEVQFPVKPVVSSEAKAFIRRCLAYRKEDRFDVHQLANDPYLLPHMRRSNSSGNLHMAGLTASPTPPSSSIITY

Results are given in words; binding and its absence hold for the method and conditions named. Binding seen in cells or lysates may run through a third protein. Some entries that bind do so weakly or less than the wild type.

For the substance “endogenous TLK1 of HeLa cells (from UniProt Q9UKI8 1-766) (enzyme)”, the binding entry is “binds”.

The values are drawn from article PMC10484734, “TLK1-mediated RAD54 phosphorylation spatio-temporally regulates Homologous Recombination Repair” (Nucleic Acids Research, 2023).
